# Assay results published in patent US10670605B2, “Cysteine reactive probes and uses thereof” (The Scripps Research Institute, priority 2015, dated 2020).
# By UniProt entry, the sequences of proteins in these tests, tags left out. Residues count along the entry.
# UniProt Q9UBR2, 62-303: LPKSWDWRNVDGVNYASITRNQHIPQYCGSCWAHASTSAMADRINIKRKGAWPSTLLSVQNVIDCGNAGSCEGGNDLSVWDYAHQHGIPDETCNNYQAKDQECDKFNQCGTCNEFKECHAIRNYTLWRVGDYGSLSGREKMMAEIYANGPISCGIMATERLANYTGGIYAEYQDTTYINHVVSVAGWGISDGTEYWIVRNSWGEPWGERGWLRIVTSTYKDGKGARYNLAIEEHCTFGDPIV
# Counter-ions that a name gives are not always drawn. For at least one compound, name, drawing or mass did not settle the structure. Some results were stated once for a whole list of compounds, not compound by compound.
# Columns and labels:
# primary human T cells = experiment: IL-2 release (ELISA), anti-CD3 + anti-CD28 stimulated T cells; format: cell-based; settings: anti-CD3, anti-CD28 stimulation, 8 h
# Procedure: 96-well plates were coated with anti-CD3 (1:200; BioXcell) and anti-CD28 (1:500; 302933; BioLegend) in PBS (100 μL/well) overnight at 4° C. The plates were then washed twice with PBS and to each well was added 500,000 primary T cells in 100 μL of RPMI supplemented with 10% FBS, glutamine, and Pen-Strep. Cells were then treated with 100 μL of media containing compound at the indicated concentrations (final well volume of 200 μL). Cells were left at 37° C. in a 5% CO2 incubator for the indicated periods of time and harvested by centrifugation (500 g, 8 min, 4° C.), followed by washing with PBS. T cells were harvested and stimulated as described above. At the indicated time points, cell culture supernatants were collected and IL-2 levels were measured in clear microplates (991427; R&D Systems) according to the manufacturer's instructions (Human IL-2 DuoSet ELISA; DY202; R&D Systems). Plates were read in a Gemini SpectraMax 250 microplate reader set to 450 nm. Data represent mean±SE for four experiments per group.
# [1] = system: Cys residues in primary human T cells; experiment: isoTOP-ABPP of compound-treated primary human T cells; format: cell-based; settings: MMF 50 μM 4 h; BSO 2.5 mM 4 h
# TGM2 C277 = target: T1, TGM2 C277 (Homo sapiens, UniProt P21980); experiment: Competitive isoTOP-ABPP, cell lysates; format: binding
# T1 sequence (P21980 1-687): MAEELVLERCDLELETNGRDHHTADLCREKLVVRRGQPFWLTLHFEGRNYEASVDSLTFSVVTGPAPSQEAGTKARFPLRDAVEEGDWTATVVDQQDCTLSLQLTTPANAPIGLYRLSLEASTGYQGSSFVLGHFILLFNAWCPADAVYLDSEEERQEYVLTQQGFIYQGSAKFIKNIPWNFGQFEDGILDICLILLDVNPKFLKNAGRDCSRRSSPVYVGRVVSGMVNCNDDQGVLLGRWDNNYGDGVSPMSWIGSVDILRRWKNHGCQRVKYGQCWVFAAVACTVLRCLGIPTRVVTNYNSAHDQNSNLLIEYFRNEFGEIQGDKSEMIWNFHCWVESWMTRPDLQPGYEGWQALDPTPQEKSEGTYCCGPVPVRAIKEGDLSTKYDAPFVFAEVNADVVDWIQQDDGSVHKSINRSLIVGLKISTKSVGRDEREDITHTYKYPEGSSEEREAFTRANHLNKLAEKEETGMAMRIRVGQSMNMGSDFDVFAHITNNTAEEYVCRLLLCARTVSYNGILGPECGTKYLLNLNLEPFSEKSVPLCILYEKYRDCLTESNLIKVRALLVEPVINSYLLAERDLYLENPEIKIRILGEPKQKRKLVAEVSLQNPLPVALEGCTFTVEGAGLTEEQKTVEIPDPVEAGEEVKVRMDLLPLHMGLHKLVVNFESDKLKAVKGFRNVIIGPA
# ALDH2 C319 = target: T2, ALDH2 C319 (Homo sapiens, UniProt P05091); experiment: Competitive isoTOP-ABPP, cell lysates; format: binding
# T2 sequence (P05091 18-517): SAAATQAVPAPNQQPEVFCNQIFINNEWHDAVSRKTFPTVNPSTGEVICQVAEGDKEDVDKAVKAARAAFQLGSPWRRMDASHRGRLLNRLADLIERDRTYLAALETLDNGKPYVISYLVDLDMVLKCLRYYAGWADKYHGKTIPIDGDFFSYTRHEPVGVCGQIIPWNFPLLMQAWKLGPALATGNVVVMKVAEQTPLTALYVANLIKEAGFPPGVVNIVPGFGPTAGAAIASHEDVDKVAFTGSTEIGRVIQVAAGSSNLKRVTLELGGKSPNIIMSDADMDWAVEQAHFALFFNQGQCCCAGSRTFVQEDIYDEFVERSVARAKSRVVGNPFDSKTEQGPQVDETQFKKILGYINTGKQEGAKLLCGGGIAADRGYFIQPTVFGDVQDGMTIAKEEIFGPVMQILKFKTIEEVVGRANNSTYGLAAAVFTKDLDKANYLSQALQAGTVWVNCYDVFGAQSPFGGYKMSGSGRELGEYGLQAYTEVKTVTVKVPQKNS
# CTSZ C92 = CTSZ C92 (Homo sapiens, UniProt Q9UBR2); experiment: Competitive isoTOP-ABPP, cell lysates; format: binding
# MAP2K7 C131 = target: T3, MAP2K7 C131 (Homo sapiens, UniProt O14733); experiment: Competitive isoTOP-ABPP; format: binding; settings: 1 μM, 1 h, Ramos
# T3 construct: endogenous in cells; host or cells: Ramos and/or MDA-MB-231 soluble lysate
# T3 sequence (O14733 1-419): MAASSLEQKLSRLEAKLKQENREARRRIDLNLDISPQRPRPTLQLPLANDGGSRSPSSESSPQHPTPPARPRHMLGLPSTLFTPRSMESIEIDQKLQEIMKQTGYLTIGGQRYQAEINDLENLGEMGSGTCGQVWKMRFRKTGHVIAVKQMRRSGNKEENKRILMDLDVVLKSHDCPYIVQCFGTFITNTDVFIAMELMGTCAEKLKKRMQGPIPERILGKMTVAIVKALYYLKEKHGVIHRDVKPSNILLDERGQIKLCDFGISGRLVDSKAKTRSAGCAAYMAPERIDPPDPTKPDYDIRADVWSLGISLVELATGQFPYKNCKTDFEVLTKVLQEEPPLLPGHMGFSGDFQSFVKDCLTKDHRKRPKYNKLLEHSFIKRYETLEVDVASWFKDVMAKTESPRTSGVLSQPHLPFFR
# [2] = system: cysteines in MDA-MB-231 and Ramos cell proteomes; experiment: Competitive isoTOP-ABPP in cell lysates (in vitro): proteomic reactivity / liganded cysteine rate; format: binding, human; settings: fragment 500 μM; % of quantified cysteines with R ≥4
# Procedure: All cell lines were obtained from ATCC, were used with a low passage number and were grown at 37° C. with 5% CO2. MDA-MB-231 cells and HEK-293T cells were grown in DMEM supplemented with 10% fetal bovine serum, penicillin, streptomycin and glutamine. Jurkat, Ramos and MUM2C cells were grown in RPMI-1640 medium supplemented with 10% fetal bovine serum, penicillin and streptomycin. For in vitro labeling, cells were grown to 100% confluence for MDA-MB-231 cells or until cell density reached 1.5 million cells/mL for Ramos and Jurkat cells. […] Cell pellets were lysed by sonication and fractionated (100,000 g, 45 min) to yield soluble and membrane fractions, which were then adjusted to a final protein concentration of 1.5 mg/mL for proteomics experiments and 1 mg/mL for gel-based ABPP experiments. The soluble lysate was prepared fresh from frozen pellets directly before each experiment. Protein concentration was determined using the Bio-Rad DC™ protein assay kit.
# For each sample, 100 μL of streptavidin-agarose beads slurry (Pierce) was washed in 10 mL PBS and then resuspended in 5 mL PBS. The SDS-solubilized proteins were added to the suspension of streptavidin-agarose beads and the bead mixture was rotated for 3 h at ambient temperature. After incubation, the beads were pelleted by centrifugation (1,400 g, 3 min) and were washed (2×10 mL PBS and 2×10 mL water). […]
structure (smiles),measurement,setting,value
"COC(=O)/C=C/C(=O)O [MMF, monomethyl fumarate]",secretion of IL-2,primary human T cells,but not
same,alteration of the ~40 DMF-sensitive Cys residues,[1],none
O=C(CCl)NC(=O)NC12CC3CC(CC(C3)C1)C2 [compound 12],liganded cysteine targeted by fragment,TGM2 C277,C277
same,liganded cysteine targeted by fragment,ALDH2 C319,C319
CC(C)(C)c1cc(NC(=O)CCl)on1 [compound 32],liganded cysteine targeted by fragment,TGM2 C277,C277
same,liganded cysteine targeted by fragment,ALDH2 C319,C319
same,liganded cysteine targeted by fragment,CTSZ C92,C92
C=CC(=O)N1CCC[C@@H](n2nc(-c3ccc(Oc4ccccc4)cc3)c3c(N)ncnc32)C1 [ibrutinib],interaction with MAP2K7 (C131) by isoTOP-ABPP,MAP2K7 C131,off-target
"C/C=C/C(=O)N1C(=O)OC[C@@H]1Cc1ccccc1 [locostatin, reference compound]",proteomic reactivity value (liganded cysteine rate),[2],> 15%
